Reference: PubChem BioAssay AID2685 (National Center for Advancing Translational Sciences (NCATS), 2010)
The list shows a part of the results. Further columns of the screen follow, without active or inactive calls. Compounds called inactive in the main read-out are mostly missing here. Potencies come from curve fits of mixed quality, noted in brackets.

Assay: qHTS Assay for Lipid Storage Modulators in Drosophila S3 Cells;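 for cell number change: cells counted by Cell Tracker Red CMTPX staining in the red channel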
Conditions: BODIPY lipid droplet fluorescence, 18-24 h; for cell number change: measured here: cell count max response, cells fed with added oleic acid
In short: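 Drosophila S3 cells loaded with oleic acid (400 uM, as added) and compounds at several concentrations; lipid droplets imaged by 488-nm laser-scanning cytometry, 500–530 nm intensity and object ratio to cell channel. Percent activity normalized to 20 uM Triacsin C.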

[1] = measured here: lipid fluorescence (Fed channel) AC50, cells fed with added oleic acid
[2] = measured here: cell number channel AC50, cells fed with added oleic acid

Row | Compound | cell number change [%] | AC50 [1] | AC50 [2]
1 | O=C(N/N=C/c1ccc(OC(=O)c2ccccc2)c([N+](=O)[O-])c1)c1ccc(O)cc1 | 3.62 | 0.326 µM [falling, partial curve, poor fit] | –
2 | COc1ccc(S(=O)(=O)N2CCN(C(=O)c3cc(C)on3)CC2)cc1 | 5.7 | – | 0.00461 µM [falling, full curve, poor fit]
3 | CC(=O)NC1(C(F)(F)F)NC(=O)N(CC(C)C)C1=O (centres undefined) | -80.5 | 5.17 µM [falling, partial curve] | 18.4 µM [falling, partial curve]
4 | O=C1CN(c2nc(-c3cccnc3)nc3sc4c(c23)CCCC4)CCN1 | 25.4 | 0.259 µM [rising, full curve, poor fit] | –
5 | Cc1ccc(S(=O)(=O)N2CCN(S(=O)(=O)N(C)C)CC2)c(C)c1 | 16.5 | 0.00461 µM [falling, full curve, poor fit] | –
6 | O=C(c1cnn2ccccc12)N1CCCc2ccccc21 | 0.527 | 29.1 µM [rising, single point] | –
7 | CCN(CC(=O)NCc1cccs1)S(=O)(=O)c1cccc(C(C)=O)c1 | -36.1 | 6.51 µM [falling, partial curve] | 8.2 µM [falling, partial curve, poor fit]
8 | CCc1cc(Cn2nc(-c3ccccc3)cc2C(=O)NCc2cccc(C(F)(F)F)c2)on1 | -10.4 | – | –
9 | O=C(NCC(c1cccnc1)N1CCN(c2ccccc2F)CC1)c1cccc(Cl)c1 (centres undefined) | 282 | 23.1 µM [rising, partial curve] | 18.4 µM [rising, partial curve, poor fit]
10 | COc1ccc(-c2cn(CCC(=O)O)c(C)n2)cc1 | 31.2 | – | 0.326 µM [rising, full curve, poor fit]
11 | COc1cc(OC)c(OC)cc1CNc1nnnn1C | 6.83 | 0.184 µM [rising, full curve, poor fit] | –
12 | Cc1ccccc1-c1nc(CS(=O)(=O)CC(=O)N(C)C2CCCCC2)c(C)o1 | 18.1 | 3.26 µM [rising, full curve] | 3.66 µM [rising, single point]
13 | COc1ccc(CCNC(=O)CSC(=O)c2ccccc2)cc1OC | 29.7 | 5.8 µM [falling, full curve, poor fit] | –
14 | O=C(NCCCn1ccnc1)C1c2ccccc2Oc2ccccc21 | 37.9 | 1.84 µM [rising, full curve] | 1.84 µM [rising, full curve]
15 | O=C(c1ccc2c(c1)OCO2)N1CCN=C1SCc1cccnc1 | – | 4.11 µM [rising, single point] | 3.26 µM [rising, single point]
16 | Cc1cc(-c2nc3cccnc3s2)ccc1NS(=O)(=O)c1ccc2c(c1)OCCO2 | 6.78 | – | 0.116 µM [rising, full curve]
17 | COc1cc(C(=O)N2CCN(c3ccccc3)CC2)c([N+](=O)[O-])cc1OC | -4.92 | 29.1 µM [rising, single point] | –
18 | CC(C)c1ccccc1NS(=O)(=O)c1cccs1 | -21.1 | – | –
19 | CCn1c(C(=O)NC(C)c2ccc3c(c2)OCCO3)cc2sccc21 (centres undefined) | -8.96 | 16.4 µM [falling, single point] | –

Row | Compound | cell number change [%] | AC50 [1] | AC50 [2]
20 | O=c1c(C(c2ccc(F)cc2)c2c(O)nc3n(c2=O)CCS3)c(O)nc2n1CCS2 | 40.8 | – | 29.1 µM [rising, single point]
21 | N=C1C(c2ccccc2)=C(O)CN1c1ccccc1N1CCOCC1 | -4.45 | – | –
22 | CC1CCN(CC(O)COCCC23CC4CC(CC(C4)C2)C3)CC1 (centres undefined) | -10.2 | 6.51 µM [falling, single point] | –
23 | CC(C)NS(=O)(=O)c1ccc2c(c1)NCC2 | 50 | 0.231 µM [falling, full curve, poor fit] | 18.4 µM [rising, single point]
24 | Cc1c(C(=O)NCCC2=CCCCC2)sc2ncnc(N3CCCCC3C)c12 (centres undefined) | 2.69 | – | –
25 | CS(=O)(=O)N(CC(=O)Nc1ccccc1C(=O)N1CCOCC1)c1ccc2c(c1)OCO2 | 5.7 | 3.66 µM [falling, full curve] | –
26 | Cc1ccc(C)c(OCCC(=O)N2CCN(S(=O)(=O)c3ccc([N+](=O)[O-])cc3)CC2)c1 | -15.4 | 29.1 µM [falling, single point] | –
27 | CC(=O)Nc1ccc(NC(=O)CSc2ncc(C(=O)Nc3ccc(Cl)cc3)c(=O)n2C)cc1 | 60 | – | 2.59 µM [rising, partial curve]
28 | CN(CC(=O)NCCC1=CCCCC1)S(=O)(=O)c1ccc2c(c1)c(=O)n(C)c(=O)n2C | -15 | 1.03 µM [falling, full curve] | –
29 | CCN(CC)C(=O)C1CC(c2ccc(OC)cc2)=NO1 (centres undefined) | – | 0.58 µM [rising, single point] | 6.51 µM [falling, single point]
30 | CC(C)(C)C(=O)CSc1ncnc2c1cnn2-c1ccccc1 | 18.5 | 2.91 µM [rising, full curve, poor fit] | –
31 | O=C(CSc1nnc(-c2ccc(O)cc2)o1)NNC(=O)c1ccncc1 | 16.7 | – | 0.00517 µM [rising, full curve, poor fit]
32 | COc1cccc(NC(=O)C2C3CCC4C(CCC32)C4(Cl)Cl)c1 (centres undefined) | – | 0.651 µM [falling, single point] | –
33 | CC1CCCN(C(c2ccccc2)c2sc3ncnn3c2O)C1 (centres undefined) | -6.76 | 0.00461 µM [falling, full curve, poor fit] | –
34 | CC(C(=O)N1CCOCC1)c1ccc([N+](=O)[O-])cc1 (centres undefined) | 5.46 | – | 1.03 µM [falling, full curve]
35 | COc1cccc(NC(=S)NNC(=O)Cn2nc(C(F)(F)F)cc2C)c1 | – | 20.6 µM [rising, single point] | –
36 | O=C1C2C3C=CC(C3)C2C(=O)N1c1ccc(S(=O)(=O)Nc2nccs2)cc1 (centres undefined) | 10.6 | 6.51 µM [rising, partial curve, poor fit] | –
37 | CC(NC(=O)/C(=C\c1ccco1)NC(=O)c1ccco1)C(=O)O (centres undefined) | 5.03 | 25.9 µM [rising, single point] | –

Grouped by structure, the entries above containing a COOH group (2)
Row | Compound | cell number change [%] | AC50 [1] | AC50 [2]
10 | COc1ccc(-c2cn(CCC(=O)O)c(C)n2)cc1 | 31.2 | – | 0.326 µM [rising, full curve, poor fit]
37 | CC(NC(=O)/C(=C\c1ccco1)NC(=O)c1ccco1)C(=O)O (centres undefined) | 5.03 | 25.9 µM [rising, single point] | –
